Reference: paper doi:10.1101/2025.09.10.675378 (bioRxiv, 2025)
Read-outs that look alike come from different tables or passages of the source. No constants are given. Whether binding was seen depends on the method and setting. Binding seen in cells or lysates may run through a third protein. A yes stands for co-enrichment or nearness to the bait. Other partners may have been found.

Amino acid sequences for entries named in this document (tags omitted).
UniProt Q9P219: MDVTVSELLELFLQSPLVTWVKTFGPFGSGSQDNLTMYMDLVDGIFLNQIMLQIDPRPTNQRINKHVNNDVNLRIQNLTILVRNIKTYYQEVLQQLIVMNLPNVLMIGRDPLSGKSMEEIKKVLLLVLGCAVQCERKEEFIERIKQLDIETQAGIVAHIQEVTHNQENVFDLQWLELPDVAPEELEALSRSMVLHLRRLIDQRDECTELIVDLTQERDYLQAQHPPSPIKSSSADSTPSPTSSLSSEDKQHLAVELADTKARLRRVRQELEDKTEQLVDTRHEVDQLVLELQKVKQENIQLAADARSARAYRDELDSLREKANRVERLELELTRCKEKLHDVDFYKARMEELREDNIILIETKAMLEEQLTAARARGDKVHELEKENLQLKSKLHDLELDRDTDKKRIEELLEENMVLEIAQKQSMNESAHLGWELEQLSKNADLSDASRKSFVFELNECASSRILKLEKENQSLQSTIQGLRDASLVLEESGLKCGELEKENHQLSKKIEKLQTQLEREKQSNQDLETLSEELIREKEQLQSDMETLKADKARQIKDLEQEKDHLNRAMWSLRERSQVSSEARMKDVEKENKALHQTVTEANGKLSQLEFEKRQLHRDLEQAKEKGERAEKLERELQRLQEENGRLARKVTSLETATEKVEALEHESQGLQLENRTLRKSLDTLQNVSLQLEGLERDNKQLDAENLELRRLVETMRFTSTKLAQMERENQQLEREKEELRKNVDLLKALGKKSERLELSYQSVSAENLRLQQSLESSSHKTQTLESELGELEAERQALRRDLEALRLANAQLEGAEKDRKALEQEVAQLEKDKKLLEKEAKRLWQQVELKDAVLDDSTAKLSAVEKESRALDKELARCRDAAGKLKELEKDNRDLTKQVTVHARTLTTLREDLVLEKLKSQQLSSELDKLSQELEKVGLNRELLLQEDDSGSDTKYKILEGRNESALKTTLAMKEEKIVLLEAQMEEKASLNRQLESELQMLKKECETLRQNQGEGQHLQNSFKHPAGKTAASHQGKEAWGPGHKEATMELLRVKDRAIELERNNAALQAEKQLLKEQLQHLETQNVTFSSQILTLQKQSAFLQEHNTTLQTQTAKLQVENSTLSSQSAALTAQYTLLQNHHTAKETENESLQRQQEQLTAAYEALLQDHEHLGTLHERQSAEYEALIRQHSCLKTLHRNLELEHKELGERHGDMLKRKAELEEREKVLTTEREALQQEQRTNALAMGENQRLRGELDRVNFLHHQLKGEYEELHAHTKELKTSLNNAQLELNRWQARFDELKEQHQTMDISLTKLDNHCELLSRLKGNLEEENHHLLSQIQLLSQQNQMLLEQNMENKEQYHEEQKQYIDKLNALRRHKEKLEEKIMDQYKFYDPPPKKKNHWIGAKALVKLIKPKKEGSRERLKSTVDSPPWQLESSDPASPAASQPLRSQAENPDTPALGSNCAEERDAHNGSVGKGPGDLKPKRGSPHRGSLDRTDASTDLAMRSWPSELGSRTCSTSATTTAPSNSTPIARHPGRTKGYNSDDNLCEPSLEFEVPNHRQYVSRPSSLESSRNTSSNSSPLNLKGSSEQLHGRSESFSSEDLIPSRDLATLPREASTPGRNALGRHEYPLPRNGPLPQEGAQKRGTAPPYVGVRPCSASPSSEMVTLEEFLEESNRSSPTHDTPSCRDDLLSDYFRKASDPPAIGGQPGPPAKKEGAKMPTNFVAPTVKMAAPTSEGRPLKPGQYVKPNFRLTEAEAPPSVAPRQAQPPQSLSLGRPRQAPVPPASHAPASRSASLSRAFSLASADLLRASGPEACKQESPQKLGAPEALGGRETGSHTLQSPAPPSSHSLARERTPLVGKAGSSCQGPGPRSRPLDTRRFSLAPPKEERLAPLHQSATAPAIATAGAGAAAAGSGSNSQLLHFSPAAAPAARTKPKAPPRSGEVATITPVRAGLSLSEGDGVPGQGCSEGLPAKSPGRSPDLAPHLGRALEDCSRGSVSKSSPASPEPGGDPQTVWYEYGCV
UniProt O95271: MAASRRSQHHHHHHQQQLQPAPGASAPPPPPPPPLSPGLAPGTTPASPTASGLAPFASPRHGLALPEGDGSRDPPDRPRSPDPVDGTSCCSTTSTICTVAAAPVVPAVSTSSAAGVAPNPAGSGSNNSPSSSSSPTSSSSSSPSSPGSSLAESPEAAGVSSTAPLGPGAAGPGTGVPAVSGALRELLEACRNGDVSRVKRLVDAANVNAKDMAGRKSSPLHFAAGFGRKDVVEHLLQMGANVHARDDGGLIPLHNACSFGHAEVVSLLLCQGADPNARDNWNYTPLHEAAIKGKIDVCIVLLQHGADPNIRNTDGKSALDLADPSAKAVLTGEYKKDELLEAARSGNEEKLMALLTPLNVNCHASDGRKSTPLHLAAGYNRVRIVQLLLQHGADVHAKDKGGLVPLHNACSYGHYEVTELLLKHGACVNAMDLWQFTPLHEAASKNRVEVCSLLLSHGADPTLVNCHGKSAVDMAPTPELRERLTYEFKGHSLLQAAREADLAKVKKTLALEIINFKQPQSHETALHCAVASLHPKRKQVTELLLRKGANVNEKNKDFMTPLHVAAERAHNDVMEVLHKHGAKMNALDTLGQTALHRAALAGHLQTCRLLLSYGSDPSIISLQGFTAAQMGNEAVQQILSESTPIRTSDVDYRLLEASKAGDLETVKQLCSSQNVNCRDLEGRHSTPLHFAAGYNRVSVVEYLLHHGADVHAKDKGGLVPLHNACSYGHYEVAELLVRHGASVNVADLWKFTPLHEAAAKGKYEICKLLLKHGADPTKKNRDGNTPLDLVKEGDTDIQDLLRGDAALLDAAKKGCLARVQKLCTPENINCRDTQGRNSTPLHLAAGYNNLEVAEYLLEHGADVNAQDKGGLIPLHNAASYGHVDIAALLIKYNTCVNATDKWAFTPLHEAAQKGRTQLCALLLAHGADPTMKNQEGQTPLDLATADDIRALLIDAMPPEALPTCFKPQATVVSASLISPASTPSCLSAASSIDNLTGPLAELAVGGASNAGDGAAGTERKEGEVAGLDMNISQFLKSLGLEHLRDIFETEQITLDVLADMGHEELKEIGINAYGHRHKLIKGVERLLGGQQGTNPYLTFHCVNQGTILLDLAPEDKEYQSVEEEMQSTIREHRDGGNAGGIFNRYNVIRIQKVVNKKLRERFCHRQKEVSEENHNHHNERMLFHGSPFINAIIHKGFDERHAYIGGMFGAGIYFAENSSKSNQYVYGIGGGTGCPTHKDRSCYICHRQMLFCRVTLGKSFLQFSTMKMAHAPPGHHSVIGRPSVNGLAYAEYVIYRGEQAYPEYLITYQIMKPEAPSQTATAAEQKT
UniProt O15169: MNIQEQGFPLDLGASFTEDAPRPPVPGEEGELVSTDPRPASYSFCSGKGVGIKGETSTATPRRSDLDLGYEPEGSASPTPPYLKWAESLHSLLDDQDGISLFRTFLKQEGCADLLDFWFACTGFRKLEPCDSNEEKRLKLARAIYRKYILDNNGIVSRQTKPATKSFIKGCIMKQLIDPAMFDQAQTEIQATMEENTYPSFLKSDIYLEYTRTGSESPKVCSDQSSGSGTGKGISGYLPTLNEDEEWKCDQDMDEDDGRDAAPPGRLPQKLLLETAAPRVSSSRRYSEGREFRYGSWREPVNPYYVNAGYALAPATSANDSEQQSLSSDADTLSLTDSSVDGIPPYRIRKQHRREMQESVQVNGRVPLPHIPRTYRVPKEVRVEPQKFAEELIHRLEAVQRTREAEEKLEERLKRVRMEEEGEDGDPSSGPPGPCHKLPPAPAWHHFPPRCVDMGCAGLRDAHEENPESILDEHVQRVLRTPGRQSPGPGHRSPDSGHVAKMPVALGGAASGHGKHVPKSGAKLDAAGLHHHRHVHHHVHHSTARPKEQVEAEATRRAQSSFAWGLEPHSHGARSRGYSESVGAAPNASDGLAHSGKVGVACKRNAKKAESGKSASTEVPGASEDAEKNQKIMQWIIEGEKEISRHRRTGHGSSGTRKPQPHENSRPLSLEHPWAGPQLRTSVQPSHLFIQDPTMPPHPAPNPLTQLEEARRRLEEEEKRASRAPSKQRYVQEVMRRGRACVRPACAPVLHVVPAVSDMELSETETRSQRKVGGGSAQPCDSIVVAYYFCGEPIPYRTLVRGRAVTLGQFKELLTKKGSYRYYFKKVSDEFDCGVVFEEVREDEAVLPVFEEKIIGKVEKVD
UniProt O14641: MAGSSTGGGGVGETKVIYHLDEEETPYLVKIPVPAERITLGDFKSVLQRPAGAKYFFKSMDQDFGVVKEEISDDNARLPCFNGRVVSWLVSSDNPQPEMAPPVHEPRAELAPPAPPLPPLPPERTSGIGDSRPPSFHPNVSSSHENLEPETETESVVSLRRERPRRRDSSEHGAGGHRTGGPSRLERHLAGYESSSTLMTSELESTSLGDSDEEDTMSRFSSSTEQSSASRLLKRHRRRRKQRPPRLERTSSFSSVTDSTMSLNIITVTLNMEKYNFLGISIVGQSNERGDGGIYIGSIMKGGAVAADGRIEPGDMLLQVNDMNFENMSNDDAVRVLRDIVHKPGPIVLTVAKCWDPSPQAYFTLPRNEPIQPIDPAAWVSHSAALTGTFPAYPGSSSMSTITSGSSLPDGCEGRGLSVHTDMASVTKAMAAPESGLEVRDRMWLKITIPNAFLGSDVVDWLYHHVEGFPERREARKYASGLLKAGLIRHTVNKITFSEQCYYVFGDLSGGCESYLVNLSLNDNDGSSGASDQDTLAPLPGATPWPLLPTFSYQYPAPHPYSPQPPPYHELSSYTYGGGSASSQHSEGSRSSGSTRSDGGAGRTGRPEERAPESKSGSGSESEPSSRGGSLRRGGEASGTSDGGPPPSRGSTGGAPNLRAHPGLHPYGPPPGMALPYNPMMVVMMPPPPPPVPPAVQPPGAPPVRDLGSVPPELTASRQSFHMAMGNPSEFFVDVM
UniProt P49674: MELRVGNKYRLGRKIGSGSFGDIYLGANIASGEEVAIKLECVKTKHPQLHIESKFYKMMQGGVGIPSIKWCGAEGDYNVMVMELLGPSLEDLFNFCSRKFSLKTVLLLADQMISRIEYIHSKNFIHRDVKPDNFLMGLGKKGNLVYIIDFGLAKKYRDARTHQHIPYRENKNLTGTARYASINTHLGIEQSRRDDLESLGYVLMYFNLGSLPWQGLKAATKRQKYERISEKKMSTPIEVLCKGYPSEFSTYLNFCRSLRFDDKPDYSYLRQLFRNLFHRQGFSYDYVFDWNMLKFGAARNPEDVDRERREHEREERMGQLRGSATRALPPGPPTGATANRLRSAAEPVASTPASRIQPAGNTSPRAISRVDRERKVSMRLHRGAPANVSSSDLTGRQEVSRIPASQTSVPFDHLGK

T1: TurboID-DVL3 WT (human) (UniProt Q92997)
T1 sequence: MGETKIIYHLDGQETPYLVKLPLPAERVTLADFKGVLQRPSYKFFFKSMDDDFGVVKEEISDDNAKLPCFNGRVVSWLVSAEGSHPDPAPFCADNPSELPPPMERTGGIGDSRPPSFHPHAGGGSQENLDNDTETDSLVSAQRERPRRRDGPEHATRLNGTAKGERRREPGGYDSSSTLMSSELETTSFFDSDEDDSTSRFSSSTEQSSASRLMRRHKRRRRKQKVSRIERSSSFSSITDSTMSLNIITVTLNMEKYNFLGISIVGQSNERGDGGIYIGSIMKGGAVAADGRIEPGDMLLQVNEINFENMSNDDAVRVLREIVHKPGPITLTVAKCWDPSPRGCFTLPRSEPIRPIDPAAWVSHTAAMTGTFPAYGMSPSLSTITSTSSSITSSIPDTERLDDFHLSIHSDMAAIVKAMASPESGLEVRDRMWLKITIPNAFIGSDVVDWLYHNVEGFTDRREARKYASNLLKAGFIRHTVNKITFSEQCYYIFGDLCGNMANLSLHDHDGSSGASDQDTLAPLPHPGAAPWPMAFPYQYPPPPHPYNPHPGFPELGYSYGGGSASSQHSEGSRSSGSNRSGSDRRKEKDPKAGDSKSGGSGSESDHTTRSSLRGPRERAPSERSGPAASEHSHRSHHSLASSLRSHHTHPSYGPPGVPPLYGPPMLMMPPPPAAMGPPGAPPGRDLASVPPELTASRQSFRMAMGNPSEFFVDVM


Legend:
TurboID-DVL3 WT (human) [1] = target: T1, TurboID-DVL3 WT (human); experiment: proximity labelling
TurboID-DVL3 WT (human) [2] = target: T1, TurboID-DVL3 WT (human); experiment: proximity labelling; remark: listed apart in the source

Molecule | binding (TurboID-DVL3 WT (human) [1]) | binding (TurboID-DVL3 WT (human) [2])
CCDC88C/Daple (from UniProt Q9P219 1-2028) | binds | –
TNKS (from UniProt O95271 1-1327) (enzyme) | binds | –
AXIN1 (from UniProt O15169 1-862) | binds | –
DVL2 (from UniProt O14641 1-736) | binds | –
CK1ε (CSNK1E) (from UniProt P49674 1-416) (enzyme) | binds | –
TNKS2 (enzyme, UniProt Q9H2K2 1-1166) MSGRRCAGGGAACASAAAEAVEPAARELFEACRNGDVERVKRLVTPEKVNSRDTAGRKSTPLHFAAGFGRKDVVEYLLQNGANVQARDDGGLIPLHNACSFGHAEVVNLLLRHGADPNARDNWNYTPLHEAAIKGKIDVCIVLLQHGAEPTIRNTDGRTALDLADPSAKAVLTGEYKKDELLESARSGNEEKMMALLTPLNVNCHASDGRKSTPLHLAAGYNRVKIVQLLLQHGADVHAKDKGDLVPLHNACSYGHYEVTELLVKHGACVNAMDLWQFTPLHEAASKNRVEVCSLLLSYGADPTLLNCHNKSAIDLAPTPQLKERLAYEFKGHSLLQAAREADVTRIKKHLSLEMVNFKHPQTHETALHCAAASPYPKRKQICELLLRKGANINEKTKEFLTPLHVASEKAHNDVVEVVVKHEAKVNALDNLGQTSLHRAAYCGHLQTCRLLLSYGCDPNIISLQGFTALQMGNENVQQLLQEGISLGNSEADRQLLEAAKAGDVETVKKLCTVQSVNCRDIEGRQSTPLHFAAGYNRVSVVEYLLQHGADVHAKDKGGLVPLHNACSYGHYEVAELLVKHGAVVNVADLWKFTPLHEAAAKGKYEICKLLLQHGADPTKKNRDGNTPLDLVKDGDTDIQDLLRGDAALLDAAKKGCLARVKKLSSPDNVNCRDTQGRHSTPLHLAAGYNNLEVAEYLLQHGADVNAQDKGGLIPLHNAASYGHVDVAALLIKYNACVNATDKWAFTPLHEAAQKGRTQLCALLLAHGADPTLKNQEGQTPLDLVSADDVSALLTAAMPPSALPSCYKPQVLNGVRSPGATADALSSGPSSPSSLSAASSLDNLSGSFSELSSVVSSSGTEGASSLEKKEVPGVDFSITQFVRNLGLEHLMDIFEREQITLDVLVEMGHKELKEIGINAYGHRHKLIKGVERLISGQQGLNPYLTLNTSGSGTILIDLSPDDKEFQSVEEEMQSTVREHRDGGHAGGIFNRYNILKIQKVCNKKLWERYTHRRKEVSEENHNHANERMLFHGSPFVNAIIHKGFDERHAYIGGMFGAGIYFAENSSKSNQYVYGIGGGTGCPVHKDRSCYICHRQLLFCRVTLGKSFLQFSAMKMAHSPPGHHSVTGRPSVNGLALAEYVIYRGEQAYPEYLITYQIMRPEGMVDG | – | binds
VANGL1 (protein, UniProt Q8TAA9 1-524) MDTESTYSGYSYYSSHSKKSHRQGERTRERHKSPRNKDGRGSEKSVTIQPPTGEPLLGNDSTRTEEVQDDNWGETTTAITGTSEHSISQEDIARISKDMEDSVGLDCKRYLGLTVASFLGLLVFLTPIAFILLPPILWRDELEPCGTICEGLFISMAFKLLILLIGTWALFFRKRRADMPRVFVFRALLLVLIFLFVVSYWLFYGVRILDSRDRNYQGIVQYAVSLVDALLFIHYLAIVLLELRQLQPMFTLQVVRSTDGESRFYSLGHLSIQRAALVVLENYYKDFTIYNPNLLTASKFRAAKHMAGLKVYNVDGPSNNATGQSRAMIAAAARRRDSSHNELYYEEAEHERRVKKRKARLVVAVEEAFIHIQRLQAEEQQKAPGEVMDPREAAQAIFPSMARALQKYLRITRQQNYHSMESILQHLAFCITNGMTPKAFLERYLSAGPTLQYDKDRWLSTQWRLVSDEAVTNGLRDGIVFVLKCLDFSLVVNVKKIPFIILSEEFIDPKSHKFVLRLQSETSV | – | binds
